Data: publication doi:10.1101/2023.11.23.568463
These are yes or no findings as the source states them, for the method shown. Binding seen in cells or lysates may run through a third protein. Where a sequence is shown, tags or fusion partners need not be part of it.

Biological target: T1, SIRT4-Flag (human) (UniProt Q9Y6E7)
T1 sequence: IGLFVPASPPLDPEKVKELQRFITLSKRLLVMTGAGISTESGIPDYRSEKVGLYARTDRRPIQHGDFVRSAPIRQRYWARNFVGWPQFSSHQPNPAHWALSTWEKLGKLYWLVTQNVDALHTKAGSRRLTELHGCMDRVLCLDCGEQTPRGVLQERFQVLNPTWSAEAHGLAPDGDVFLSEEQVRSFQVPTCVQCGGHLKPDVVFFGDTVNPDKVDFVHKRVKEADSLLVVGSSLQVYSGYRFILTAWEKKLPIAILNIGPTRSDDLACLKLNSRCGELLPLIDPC
Assay: co-IP

binding: no binding
Substance: KRAS (endogenous, HEK293 cells) (from UniProt P01116 1-189)
